Measured values published in the supplement of paper PMC11732987, “Enantioselective OTUD7B fragment discovery through chemoproteomics screening and high-throughput optimisation” (Communications Chemistry, 2025).
The other results are listed elsewhere or left out. The data scatter; read single values as rough.

Sequences of proteins named here, by UniProt entry; tags and fusion partners are left off. A change or cut given only in a name is not applied to a line headed by its entry. Residues count along the entry.
UniProt Q9NU22, 1108-1130: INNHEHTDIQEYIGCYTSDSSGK
UniProt P40925: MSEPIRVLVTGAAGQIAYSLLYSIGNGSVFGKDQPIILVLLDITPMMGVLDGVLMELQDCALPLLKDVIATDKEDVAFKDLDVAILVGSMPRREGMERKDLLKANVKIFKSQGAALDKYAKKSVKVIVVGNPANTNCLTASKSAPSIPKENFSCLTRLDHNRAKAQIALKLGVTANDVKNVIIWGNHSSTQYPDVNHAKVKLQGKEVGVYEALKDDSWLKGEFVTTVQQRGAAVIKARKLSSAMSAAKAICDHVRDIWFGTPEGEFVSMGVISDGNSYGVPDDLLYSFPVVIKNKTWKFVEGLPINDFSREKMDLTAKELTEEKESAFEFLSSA
UniProt Q14680: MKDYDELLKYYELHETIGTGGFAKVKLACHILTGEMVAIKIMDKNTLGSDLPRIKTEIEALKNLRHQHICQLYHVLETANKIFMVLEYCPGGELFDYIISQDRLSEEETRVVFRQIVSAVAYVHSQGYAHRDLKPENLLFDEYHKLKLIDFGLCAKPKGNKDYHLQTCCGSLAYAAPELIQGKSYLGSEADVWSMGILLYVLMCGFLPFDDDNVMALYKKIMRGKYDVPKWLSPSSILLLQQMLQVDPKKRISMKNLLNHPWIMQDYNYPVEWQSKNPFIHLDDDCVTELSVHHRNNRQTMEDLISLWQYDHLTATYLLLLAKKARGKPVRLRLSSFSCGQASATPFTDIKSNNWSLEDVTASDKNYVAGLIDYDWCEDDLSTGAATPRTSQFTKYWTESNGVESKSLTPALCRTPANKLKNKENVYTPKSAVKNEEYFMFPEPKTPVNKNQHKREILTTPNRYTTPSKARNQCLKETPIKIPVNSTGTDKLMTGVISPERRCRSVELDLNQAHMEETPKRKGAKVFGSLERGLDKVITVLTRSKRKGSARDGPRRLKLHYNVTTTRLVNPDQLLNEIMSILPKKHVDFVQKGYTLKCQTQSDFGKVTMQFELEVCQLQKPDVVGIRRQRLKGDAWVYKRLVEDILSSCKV
UniProt Q9HCE1: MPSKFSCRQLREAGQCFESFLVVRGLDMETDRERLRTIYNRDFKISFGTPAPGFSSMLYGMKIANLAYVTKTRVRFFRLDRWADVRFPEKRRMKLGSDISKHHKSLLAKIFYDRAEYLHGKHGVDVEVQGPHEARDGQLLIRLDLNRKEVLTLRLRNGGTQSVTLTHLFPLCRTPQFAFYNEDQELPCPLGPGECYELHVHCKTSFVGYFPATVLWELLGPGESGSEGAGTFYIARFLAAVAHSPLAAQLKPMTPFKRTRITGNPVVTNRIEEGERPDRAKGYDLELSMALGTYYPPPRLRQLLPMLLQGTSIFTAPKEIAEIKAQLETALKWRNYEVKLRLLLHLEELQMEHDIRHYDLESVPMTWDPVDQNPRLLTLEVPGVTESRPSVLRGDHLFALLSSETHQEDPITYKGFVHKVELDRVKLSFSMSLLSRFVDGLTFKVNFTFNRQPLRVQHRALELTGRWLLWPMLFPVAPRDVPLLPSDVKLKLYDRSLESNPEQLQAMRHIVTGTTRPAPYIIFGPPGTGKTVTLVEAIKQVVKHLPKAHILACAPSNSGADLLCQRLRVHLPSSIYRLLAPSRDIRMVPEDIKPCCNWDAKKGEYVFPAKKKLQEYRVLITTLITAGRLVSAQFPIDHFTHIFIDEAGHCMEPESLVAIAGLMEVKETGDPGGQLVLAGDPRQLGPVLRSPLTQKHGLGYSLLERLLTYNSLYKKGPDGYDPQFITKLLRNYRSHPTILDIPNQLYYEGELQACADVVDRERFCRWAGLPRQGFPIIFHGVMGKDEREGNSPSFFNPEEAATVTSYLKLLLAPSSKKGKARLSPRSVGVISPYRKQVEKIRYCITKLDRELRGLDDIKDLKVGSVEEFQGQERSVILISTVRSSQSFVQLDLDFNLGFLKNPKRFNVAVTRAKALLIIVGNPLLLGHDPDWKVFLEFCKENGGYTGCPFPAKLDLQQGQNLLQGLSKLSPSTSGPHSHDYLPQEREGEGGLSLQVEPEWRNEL
UniProt Q6IN84: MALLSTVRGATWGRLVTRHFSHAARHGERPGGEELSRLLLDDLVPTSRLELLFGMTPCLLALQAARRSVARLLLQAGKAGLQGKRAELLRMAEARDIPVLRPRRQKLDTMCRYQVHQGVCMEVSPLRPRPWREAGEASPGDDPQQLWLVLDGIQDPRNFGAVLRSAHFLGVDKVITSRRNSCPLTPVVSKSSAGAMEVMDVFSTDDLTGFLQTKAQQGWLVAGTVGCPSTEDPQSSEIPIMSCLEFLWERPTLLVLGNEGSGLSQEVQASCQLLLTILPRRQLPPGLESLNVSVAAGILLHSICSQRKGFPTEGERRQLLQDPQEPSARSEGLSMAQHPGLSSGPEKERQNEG
UniProt P50579, 111-131: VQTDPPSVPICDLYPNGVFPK
UniProt Q12866: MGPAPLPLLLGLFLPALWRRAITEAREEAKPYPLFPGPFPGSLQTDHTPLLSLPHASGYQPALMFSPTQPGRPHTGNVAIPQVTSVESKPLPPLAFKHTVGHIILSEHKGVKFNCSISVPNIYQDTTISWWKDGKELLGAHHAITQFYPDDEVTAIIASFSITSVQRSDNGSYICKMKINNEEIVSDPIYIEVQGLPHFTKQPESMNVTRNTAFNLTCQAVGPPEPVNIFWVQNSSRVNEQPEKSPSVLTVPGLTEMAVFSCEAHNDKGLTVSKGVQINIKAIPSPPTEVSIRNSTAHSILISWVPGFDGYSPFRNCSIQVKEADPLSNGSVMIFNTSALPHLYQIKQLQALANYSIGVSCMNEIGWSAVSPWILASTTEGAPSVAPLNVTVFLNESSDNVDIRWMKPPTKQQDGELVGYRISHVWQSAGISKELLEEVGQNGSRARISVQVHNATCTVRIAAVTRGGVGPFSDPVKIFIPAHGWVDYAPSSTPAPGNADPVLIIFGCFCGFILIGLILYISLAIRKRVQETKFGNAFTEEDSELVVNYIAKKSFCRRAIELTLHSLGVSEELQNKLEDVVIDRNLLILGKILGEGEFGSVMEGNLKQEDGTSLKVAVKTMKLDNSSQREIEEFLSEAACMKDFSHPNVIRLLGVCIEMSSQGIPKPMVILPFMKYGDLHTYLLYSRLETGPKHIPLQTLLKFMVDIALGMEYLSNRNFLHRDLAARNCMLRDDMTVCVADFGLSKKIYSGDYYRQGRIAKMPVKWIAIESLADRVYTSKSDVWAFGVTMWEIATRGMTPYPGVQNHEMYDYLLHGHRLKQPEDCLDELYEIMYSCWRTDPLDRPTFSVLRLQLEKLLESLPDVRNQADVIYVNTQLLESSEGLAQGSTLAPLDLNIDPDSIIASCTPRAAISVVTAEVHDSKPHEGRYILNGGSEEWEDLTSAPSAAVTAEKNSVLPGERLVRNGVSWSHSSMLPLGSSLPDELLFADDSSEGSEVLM
UniProt Q15648, whole entry, looked up: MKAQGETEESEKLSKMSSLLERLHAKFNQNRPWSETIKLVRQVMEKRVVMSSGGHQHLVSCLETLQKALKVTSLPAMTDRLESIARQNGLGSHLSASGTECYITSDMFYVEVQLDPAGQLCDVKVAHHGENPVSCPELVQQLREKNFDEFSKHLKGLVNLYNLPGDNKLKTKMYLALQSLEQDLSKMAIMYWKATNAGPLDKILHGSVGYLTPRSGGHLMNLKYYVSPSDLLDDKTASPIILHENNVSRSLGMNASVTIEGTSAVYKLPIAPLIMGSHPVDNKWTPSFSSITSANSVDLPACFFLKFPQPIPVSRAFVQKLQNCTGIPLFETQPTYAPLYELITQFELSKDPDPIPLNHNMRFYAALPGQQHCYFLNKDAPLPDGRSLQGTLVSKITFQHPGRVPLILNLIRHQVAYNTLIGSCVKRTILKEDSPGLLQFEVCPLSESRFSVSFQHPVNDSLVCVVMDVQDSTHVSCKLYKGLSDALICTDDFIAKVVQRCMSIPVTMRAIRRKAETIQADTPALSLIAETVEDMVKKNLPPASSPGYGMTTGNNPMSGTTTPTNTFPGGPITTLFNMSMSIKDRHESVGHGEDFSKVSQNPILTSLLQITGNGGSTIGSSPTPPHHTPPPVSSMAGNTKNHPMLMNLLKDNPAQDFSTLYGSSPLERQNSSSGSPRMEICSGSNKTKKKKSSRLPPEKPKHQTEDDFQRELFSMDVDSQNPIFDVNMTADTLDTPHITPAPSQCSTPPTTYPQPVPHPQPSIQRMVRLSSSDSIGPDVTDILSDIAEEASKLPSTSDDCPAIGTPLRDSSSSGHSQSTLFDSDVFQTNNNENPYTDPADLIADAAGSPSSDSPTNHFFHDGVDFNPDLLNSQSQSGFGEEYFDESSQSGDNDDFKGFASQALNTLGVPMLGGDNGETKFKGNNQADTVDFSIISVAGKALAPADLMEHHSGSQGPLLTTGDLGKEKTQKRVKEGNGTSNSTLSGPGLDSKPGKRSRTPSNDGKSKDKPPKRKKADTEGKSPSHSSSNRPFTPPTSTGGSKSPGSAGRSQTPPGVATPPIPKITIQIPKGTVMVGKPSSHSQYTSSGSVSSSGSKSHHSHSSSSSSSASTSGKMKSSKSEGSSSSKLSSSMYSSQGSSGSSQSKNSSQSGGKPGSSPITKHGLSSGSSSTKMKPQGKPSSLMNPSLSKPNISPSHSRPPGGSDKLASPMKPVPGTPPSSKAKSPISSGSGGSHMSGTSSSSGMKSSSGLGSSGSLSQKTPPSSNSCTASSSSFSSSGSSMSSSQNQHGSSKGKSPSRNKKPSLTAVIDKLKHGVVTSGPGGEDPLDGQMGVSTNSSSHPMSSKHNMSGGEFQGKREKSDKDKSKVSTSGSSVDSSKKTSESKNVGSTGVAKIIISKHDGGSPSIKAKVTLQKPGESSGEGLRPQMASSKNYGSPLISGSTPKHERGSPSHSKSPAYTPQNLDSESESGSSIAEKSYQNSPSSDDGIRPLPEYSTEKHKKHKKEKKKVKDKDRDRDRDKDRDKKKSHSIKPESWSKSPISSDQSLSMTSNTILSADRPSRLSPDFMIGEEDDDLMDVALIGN
UniProt Q9UBG0: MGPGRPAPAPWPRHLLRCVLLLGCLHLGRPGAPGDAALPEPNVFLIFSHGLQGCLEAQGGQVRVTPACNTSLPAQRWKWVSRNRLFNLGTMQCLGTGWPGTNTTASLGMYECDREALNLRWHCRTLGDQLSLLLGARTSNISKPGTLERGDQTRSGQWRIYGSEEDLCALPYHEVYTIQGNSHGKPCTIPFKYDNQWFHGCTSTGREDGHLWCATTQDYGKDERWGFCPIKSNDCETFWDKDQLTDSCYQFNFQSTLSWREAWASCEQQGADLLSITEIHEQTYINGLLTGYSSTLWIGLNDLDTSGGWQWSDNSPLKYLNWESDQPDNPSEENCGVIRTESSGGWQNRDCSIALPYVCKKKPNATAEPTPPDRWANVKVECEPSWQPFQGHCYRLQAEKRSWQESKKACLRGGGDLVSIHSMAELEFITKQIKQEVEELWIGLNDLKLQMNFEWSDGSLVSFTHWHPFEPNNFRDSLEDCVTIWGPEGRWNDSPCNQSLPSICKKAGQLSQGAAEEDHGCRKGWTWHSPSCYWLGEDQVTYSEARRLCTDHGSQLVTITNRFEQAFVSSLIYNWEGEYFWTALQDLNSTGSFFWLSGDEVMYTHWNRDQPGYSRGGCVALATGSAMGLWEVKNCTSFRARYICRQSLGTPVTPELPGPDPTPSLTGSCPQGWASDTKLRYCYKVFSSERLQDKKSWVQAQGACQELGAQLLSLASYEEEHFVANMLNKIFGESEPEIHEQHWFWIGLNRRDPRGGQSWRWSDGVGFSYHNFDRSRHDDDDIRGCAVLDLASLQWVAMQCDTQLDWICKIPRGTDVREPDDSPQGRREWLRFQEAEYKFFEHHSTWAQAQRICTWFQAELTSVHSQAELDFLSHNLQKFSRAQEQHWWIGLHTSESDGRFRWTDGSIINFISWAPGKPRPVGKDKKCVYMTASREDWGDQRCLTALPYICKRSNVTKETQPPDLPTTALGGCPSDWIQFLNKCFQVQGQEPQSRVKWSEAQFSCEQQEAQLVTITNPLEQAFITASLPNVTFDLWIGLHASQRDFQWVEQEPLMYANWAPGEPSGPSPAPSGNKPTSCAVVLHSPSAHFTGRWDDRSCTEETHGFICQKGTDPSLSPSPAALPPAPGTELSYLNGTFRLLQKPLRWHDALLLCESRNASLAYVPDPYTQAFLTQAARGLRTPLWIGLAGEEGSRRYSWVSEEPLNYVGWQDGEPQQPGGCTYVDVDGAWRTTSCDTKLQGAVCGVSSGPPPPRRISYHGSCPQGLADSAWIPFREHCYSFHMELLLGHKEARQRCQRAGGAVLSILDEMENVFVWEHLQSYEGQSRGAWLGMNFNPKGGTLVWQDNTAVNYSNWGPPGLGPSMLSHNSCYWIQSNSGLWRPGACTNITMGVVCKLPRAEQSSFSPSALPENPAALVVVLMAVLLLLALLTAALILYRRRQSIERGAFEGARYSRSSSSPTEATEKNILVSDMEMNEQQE
UniProt Q9NWA0: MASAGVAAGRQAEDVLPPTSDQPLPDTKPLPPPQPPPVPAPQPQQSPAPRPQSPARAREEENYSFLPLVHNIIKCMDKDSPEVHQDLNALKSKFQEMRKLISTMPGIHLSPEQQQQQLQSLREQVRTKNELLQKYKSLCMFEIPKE

Assays:
[1] = compound: ClCC(=O)N[C@@H]1CCCc2ccccc12; assay: log2 mean competition ratio of IA-DTB cysteine labelling (DMSO/compound) (log2 ratio); higher = stronger cysteine engagement by compound; details: treatment time: 4 h, cell line lysate: HEK293T
Experimental: (§1)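 IA-DTB competitive cysteine chemoproteomics in HEK293T RIPA lysate. Lysates were treated with compound 29 or 30 at 50 or 200 µM for 4 h, then IA-DTB (500 µM, 1 h), trypsin-digested, NeutrAvidin-enriched and analysed by diaPASEF. Competition ratio = intensity DMSO / intensity compound (n=4 treated, n=64 DMSO); binding: mean log2 CR ≥ 1 and p ≤ 0.05 plus QC filters. Target is the cysteine site.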

[2] = compound: ClCC(=O)N[C@H]1CCCc2ccccc12; assay: as above; details: treatment time: 4 h, cell line lysate: HEK293T
Experimental: as §1

| Target | log2 mean competition ratio ([1]; 50 µM) | log2 mean competition ratio ([1]; 200 µM) | log2 mean competition ratio ([2]; 50 µM) | log2 mean competition ratio ([2]; 200 µM) |
| --- | --- | --- | --- | --- |
| MGRN1 C293 (UniProt O60291) | -0.056 | -0.113 | 0.157 | -0.00295 |
| MDN1 C3263 (UniProt Q9NU22) | 0.116 | -0.0623 | 0.285 | -0.0553 |
| MED4 C162 (UniProt Q9NPJ6) | 0.441 | -0.26 | 0.618 | -0.121 |
| MND1 C62 (UniProt Q9BWT6) | -0.447 | -0.4 | -0.0499 | 0.21 |
| MIGA1 C240 | -0.56 | 0.333 | -0.162 | 0.334 |
| MIIP C260 (UniProt Q5JXC2) | -0.245 | -0.0874 | 0.0528 | 0.0899 |
| MMAA C100 (UniProt Q8IVH4) | 0.0977 | -0.124 | -0.101 | -0.319 |
| MINDY1 C94 (UniProt Q8N5J2) | -0.00989 | -0.198 | 0.136 | -0.205 |
| MDH1 C137 (UniProt P40925) | -0.259 | 0.292 | 0.097 | 0.645 |
| MELK C649 (UniProt Q14680) | -0.0378 | -0.122 | 0.378 | 0.259 |
| MIA3 C61 (UniProt Q5JRA6) | 0.0632 | 0.0397 | 0.49 | -0.0412 |
| MOV10 C16 (UniProt Q9HCE1) | -0.0133 | -0.0612 | 0.0263 | 0.0556 |
| MRM1 C182 (UniProt Q6IN84) | -0.05 | 0.117 | -0.158 | 0.11 |
| METTL2A C126 (UniProt Q96IZ6) | -0.129 | 0.108 | 0.199 | 0.254 |
| MON1B C297 (UniProt Q7L1V2) | 0.0457 | 0.335 | 0.1 | 0.23 |
| MKI67 C1843 (UniProt P46013) | -0.266 | 0.0167 | 0.164 | 0.0459 |
| MMS19 C760 (UniProt Q96T76) | 0.132 | 0.0343 | -0.0597 | -0.0371 |
| MEX3C C235 (UniProt Q5U5Q3) | -0.503 | 0.248 | -0.327 | 0.311 |
| MED28 C80 (UniProt Q9H204) | 0.00227 | -0.0828 | 0.0499 | -0.0266 |
| MID1 C580 (UniProt O15344) | 0.275 | 0.104 | 0.146 | 0.115 |
| MEN1 C426 (UniProt O00255) | -0.13 | 0.00292 | 0.0736 | 0.0743 |
| MFN1 C681 (UniProt Q8IWA4) | -0.142 | 0.0529 | -0.651 | -0.0615 |

| Target | log2 mean competition ratio ([1]; 50 µM) | log2 mean competition ratio ([1]; 200 µM) | log2 mean competition ratio ([2]; 50 µM) | log2 mean competition ratio ([2]; 200 µM) |
| --- | --- | --- | --- | --- |
| METTL9 C59 (UniProt Q9H1A3) | -0.11 | -0.0823 | 0.356 | 0.124 |
| MDH2 C285 (UniProt P40926) | -0.246 | -0.101 | -0.284 | 0.304 |
| MED12 C1287 (UniProt Q93074) | 0.0392 | -0.172 | 0.044 | 0.0798 |
| METAP2 C121 (UniProt P50579) | -0.279 | 0.24 | -0.439 | 0.0342 |
| MDN1 C2030 (UniProt Q9NU22) | 0.275 | -0.612 | -0.0326 | -0.515 |
| MOCS1 C218 (UniProt Q9NZB8) | 0.154 | 0.29 | 0.437 | 0.128 |
| MERTK C640 (UniProt Q12866) | -0.451 | -0.439 | -0.361 | 0.204 |
| MED1 C681 (UniProt Q15648) | 0.0101 | -0.0586 | 0.172 | -0.0038 |
| METTL13 C391 (UniProt Q8N6R0) | -0.367 | -0.149 | -0.45 | -0.12 |
| MRC2 C1243 (UniProt Q9UBG0) | -0.105 | -0.0417 | 0.158 | -0.101 |
| MRE11 C336 | 0.145 | -0.263 | -0.175 | -0.206 |
| MDN1 C1122 (UniProt Q9NU22) | 0.00904 | -0.0828 | -0.418 | -0.159 |
| MED22 C112 (UniProt Q15528) | -0.238 | 0.0345 | -0.243 | 0.312 |
| MDN1 C95 (UniProt Q9NU22) | 0.529 | 0.233 | 0.756 | 0.195 |
| MDN1 C882 (UniProt Q9NU22) | 0.438 | 0.425 | -0.398 | 0.433 |
| MED9 C139 (UniProt Q9NWA0) | -0.0386 | 0.0446 | 0.463 | 0.321 |
| MIS18BP1 C206 | -0.256 | -0.0567 | -0.109 | 0.133 |
| MED16 C539 (UniProt Q9Y2X0) | 0.138 | -0.168 | 0.132 | 0.0433 |
| MRPL12 C45 (UniProt P52815) | 0.0123 | -0.0307 | 0.175 | 0.0936 |
| MPV17L2 C198 (UniProt Q567V2) | -0.104 | -0.167 | -0.357 | -0.0102 |
| MKI67 C1479 (UniProt P46013) | 0.211 | -0.0683 | -0.0198 | -0.0791 |
| MID1 C266 (UniProt O15344) | -0.57 | 0.334 | 0.0684 | 0.0271 |

Complete entries as entered above. Values in the order: log2 mean competition ratio ([1]; 50 µM)	log2 mean competition ratio ([1]; 200 µM)	log2 mean competition ratio ([2]; 50 µM)	log2 mean competition ratio ([2]; 200 µM)
MDH2 C285 (UniProt P40926) reads -0.246	-0.101	-0.284	0.304
MRPL12 C45 (UniProt P52815) reads 0.0123	-0.0307	0.175	0.0936
METAP2 C121 (UniProt P50579) reads -0.279	0.24	-0.439	0.0342
